This passage reports binding results from article PMC10180911.

Assay [1] deals with T1, maMYB, full-length, MYTH bait (Arabidopsis thaliana) (UniProt Q9ASQ2).
T1 sequence: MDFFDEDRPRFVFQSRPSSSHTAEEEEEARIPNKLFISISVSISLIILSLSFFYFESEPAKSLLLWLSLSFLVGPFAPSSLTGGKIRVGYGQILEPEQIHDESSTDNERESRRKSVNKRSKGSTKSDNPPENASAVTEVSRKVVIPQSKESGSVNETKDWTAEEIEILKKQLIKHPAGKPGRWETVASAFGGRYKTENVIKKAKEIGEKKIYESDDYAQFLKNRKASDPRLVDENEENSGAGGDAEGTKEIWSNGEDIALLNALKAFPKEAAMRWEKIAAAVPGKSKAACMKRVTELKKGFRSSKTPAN
Put plainly: two-hybrid; split-ubiquitin MYTH, drop tests of named pairs on permissive (YNB -Leu -Trp) and test medium (YNB -Leu -Trp -Ade -His); strain NMY51; bait plasmid pBT3N, prey plasmid pPR3N.

Assay [2] has as its target T2, maMYB–CFP (Arabidopsis thaliana) (UniProt Q9ASQ2).
T2 sequence: T1 sequence
Briefly: FRET or BRET; apFRET in planta; transiently expressed fluorescent protein fusions; FRET efficiency measured in regions of interest at the ER and the NE. Background: In BRET a luciferase serves as donor, and the signal depends on an acceptor being close.

The target of assay [3] is T3, CFP–maMYB (Arabidopsis thaliana) (UniProt Q9ASQ2).
T3 sequence: T1 sequence
Described as above.

Results are given in words; binding and its absence hold for the method and conditions named. For some of these results: In cells and extracts the contact can be indirect. Some binding calls cover weakened binding; strength is not graded here. For some of these results: Where a sequence is shown, tags or fusion partners need not be part of it.

B1: SUN5, full-length, MYTH prey (protein, UniProt F4JPE9 1-561)
chain: MARRGSCSTICLNEKLQRFRIVRISDKADNFNSRSGSFFERSISLVLLLWCFLFLVYSKLGQSHDDYGNADRIGNYTDGSVSKTLNSTSSVFPQATEKENNFCLLRKGQLQDVYEHVLVNNALLICKVVLPERRISKKTLEARDPRYVNLEDKSLKVNGSSQLVNNGTRYRLEPDGNGYNYASAMKGAKVVDHNKEAKGASNVLGKDHDKYLRNPCSVSDKYVVIELAEETLVDTVRIANFEHYSSNPKEFSLSGSLSFPSDMWTPAGSFAAANVKQIQSFRLPEPKWLRYLKLNLVSHYGSEFYCTLSVVEVFGIDALEQMLEDLFVPSETPPSKPAMVELKTADEKQDGEIKSNRTDQIGKETEAQKKKDDVVKTINIIGDKKYEVKEKHNVLKVMMQKVKLIEMNLSLLEDSVKKMNDKQPEVSLEMKKTLVLVEKSKADIREITEWKGKMEKELRDLELWKTLVASRVESLARGNSALRLDVEKIVKEQANLESKELGVLLISLFFVVLATIRLVSTRLWAFLGMSITDKARSLWPDSGWVMILLSSSIMIFIHLLS
Turning to B1, the binding result in assay [1] was “binds weakly”.

B2: SUN4, full-length, MYTH prey (protein, UniProt F4I8I0 1-596)
chain: MQRSRRALLVRRRVSETTSNGRNRFYKVSLSLVFLIWGLVFLSTLWISHVDGDKGRSLVDSVEKGEPDDERADETAESVDATSLESTSVHSNPGLSSDVDIAAAGESKGSETILKQLEVDNTIVIVGNVTESKDNVPMKQSEINNNTVPGNDTETTGSKLDQLSRAVPLGLDEFKSRASNSRDKSLSGQVTGVIHRMEPGGKEYNYAAASKGAKVLSSNKEAKGASSIICRDKDKYLRNPCSTEGKFVVIELSEETLVNTIKIANFEHYSSNLKDFEILGTLVYPTDTWVHLGNFTALNMKHEQNFTFADPKWVRYLKLNLLSHYGSEFYCTLSLLEVYGVDAVERMLEDLISIQDKNILKLQEGDTEQKEKKTMQAKESFESDEDKSKQKEKEQEASPENAVVKDEVSLEKRKLPDPVEEIKHQPGSRMPGDTVLKILMQKIRSLDVSLSVLESYLEERSLKYGMIFKEMDLEASKREKEVETMRLEVEGMKEREENTKKEAMEMRKWRMRVETELEKAENEKEKVKERLEQVLERLEWMEKKGVVVFTICVGFGTIAVVAVVFGMGIVRAEKQGGLAWLLLLISSTFVMFILSL
For the molecule B2, the binding result in assay [1] was “no binding”.

B3: SUN4, fluorescent protein fusion for apFRET (protein, UniProt F4I8I0 1-596)
chain: B2 chain
With B3, the binding entry in assay [2] and in assay [3] was “no binding” in each case.

B4: SUN3, full-length, MYTH prey (protein, UniProt F4I316 1-660)
chain: MQRSCRTRRRVSVNKFNGRNSFYKVSLSLVFLLWVLLFFSTLLISHGDGAKDEPLNDSMGMADPDDGQSDEKVVPFDGPLSLASASVDVTSDLSRNDDVNLSEESEDKEQEAEISSTVSGNDIESKDTYLLKQSEINKKDTGIDAGSKYDDFPKKSEINNTGTWNDTEGKDDNNFLKQSQLNKTGTGNDTESSDNEFLEQNQMNKTVLGNGTEINVSKVDQPSRAVPLGLDEFKSRASNSRNKSLSDQVSGVIHRMEPGGKEYNYASASKGAKVLSSNKEAKGAASILSRDNDKYLRNPCSTEGKFVVVELSEETLVNTIKIANFEHYSSNLKEFELQGTLVYPTDTWVHMGNFTASNVKHEQNFTLLEPKWVRYLKLNFISHYGSEFYCTLSLIEVYGVDAVERMLEDLISVQDNKNAYKPREGDSEHKEKPMQQIESLEGDDGADKSTHREKEKEAPPENMLAKTEASMAKSSNKLSEPVEEMRHHQPGSRMPGDTVLKILMQKLRSLDLNLSILERYLEELNLRYGNIFKEMDREAGVREKAIVALRLDLEGMKERQEGMVSEAEEMKEWRKRVEAEMEKAEKEKENIRQSLEQVSKRLEWMEKKCLTVFTVCLGFGIIAVIAVVIGMGTGLAEKTGSGAWLLLLISSTFIMFVLSL
As for B4, the binding entry in assay [1] is “binds”.

B5: YFP–SUN3 (protein, UniProt F4I316 1-660)
chain: B4 chain
Take B5: the binding result in assay [2] and in assay [3] was “binds” in each case.
